Experimental findings from US9623031B2, “Compositions, methods and kits for treating cancer” (priority 2011, dated 2017) are described below.

The test system of the data set is RAW264.7 macrophages. The data set can be described thus: Endogenous production of PGD3 metabolites in EPA-treated RAW264.7 macrophages (LC-MS). The format is cell-based, mouse.

For `CC/C=C\C[C@H](O)C/C=C1/C(=O)C=C[C@@H]1C/C=C\CCCC(=O)O` [Δ^12-PGJ3, Δ^12-prostaglandin J3], the “Δ^12-PGJ3 produced by macrophages” value by setting is: (50 μM EPA, 48 h post-LPS) around 0.15 μM/10^6 cells; (LC-MS/MS) around 0.15 μM/10^6 macrophages.
